Experimental findings from patent publication US20230183592A1, “[…] ORGANO[…] AS NON-[…]-WEAR AGENTS” (priority 2020, published 2023) are described below.

Protein sequences, listed by entry. Tags and fused reporters are not part of them. Residues count along the entry.
UniProt P81908, whole entry: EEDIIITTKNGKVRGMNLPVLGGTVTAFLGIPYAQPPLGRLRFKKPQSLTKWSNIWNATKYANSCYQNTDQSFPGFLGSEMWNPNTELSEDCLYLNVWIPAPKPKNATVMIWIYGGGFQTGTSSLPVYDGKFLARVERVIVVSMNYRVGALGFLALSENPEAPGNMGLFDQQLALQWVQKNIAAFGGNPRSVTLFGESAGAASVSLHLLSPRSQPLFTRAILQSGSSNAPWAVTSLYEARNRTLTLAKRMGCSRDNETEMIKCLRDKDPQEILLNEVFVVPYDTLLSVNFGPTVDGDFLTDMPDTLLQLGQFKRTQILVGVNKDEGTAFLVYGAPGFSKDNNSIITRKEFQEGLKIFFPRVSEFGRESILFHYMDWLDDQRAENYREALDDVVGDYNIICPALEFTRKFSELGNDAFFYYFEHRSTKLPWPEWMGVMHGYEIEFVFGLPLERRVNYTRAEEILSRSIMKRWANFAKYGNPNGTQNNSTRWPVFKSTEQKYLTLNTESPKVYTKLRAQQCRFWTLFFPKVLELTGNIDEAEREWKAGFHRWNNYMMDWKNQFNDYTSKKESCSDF
UniProt P22303, 32-617 isoform 2 limits assumed: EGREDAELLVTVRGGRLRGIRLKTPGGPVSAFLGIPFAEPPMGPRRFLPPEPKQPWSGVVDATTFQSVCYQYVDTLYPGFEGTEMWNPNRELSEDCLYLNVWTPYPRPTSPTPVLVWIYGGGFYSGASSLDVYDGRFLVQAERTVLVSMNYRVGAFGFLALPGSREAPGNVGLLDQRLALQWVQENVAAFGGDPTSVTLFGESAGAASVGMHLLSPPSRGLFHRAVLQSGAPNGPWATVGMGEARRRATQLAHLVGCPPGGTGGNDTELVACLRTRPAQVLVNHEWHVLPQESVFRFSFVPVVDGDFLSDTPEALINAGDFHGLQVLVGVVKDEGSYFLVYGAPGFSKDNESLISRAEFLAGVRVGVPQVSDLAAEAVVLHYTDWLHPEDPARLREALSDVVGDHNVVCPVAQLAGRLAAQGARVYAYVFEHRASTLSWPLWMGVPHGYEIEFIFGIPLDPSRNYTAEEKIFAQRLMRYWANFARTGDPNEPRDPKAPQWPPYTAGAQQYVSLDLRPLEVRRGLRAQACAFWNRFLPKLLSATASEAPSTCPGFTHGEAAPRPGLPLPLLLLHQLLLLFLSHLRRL

In brackets after ≈: the same amount, converted by molar mass. Structures were worked out from names or drawings and are uncertain.

The target of experiment [1] is BuChE from equine serum (eqBuChE) (Equus caballus, UniProt P81908). Particulars: Ellman method, 5 min pre-incubation at 25° C., n=3.
The target in experiment [2] is human erythrocyte AChE (hAChE) (Homo sapiens, UniProt P22303). The note with it: Ellman method, 5 min pre-incubation at 25° C., n=3.

For `CCCCCCCCCCCCCCCCC(CCCCCCCCCCCCCC)COP(=O)(Oc1ccccc1)Oc1ccccc1` (centres unmarked), the “IC50 eqBuChE” value in experiment [1] was found to be 127 µg/mL (≈ 182 µM). Also, in experiment [2], the “IC50 hAChE” value came to 23 µg/mL (≈ 32.9 µM).
